Binding data for 2 substances are collected here from PMC4177678.

Protein sequences, listed by entry. Tags and fused reporters are not part of them. Lines headed by an entry give the natural chain unless they say otherwise; changes in a name come on top. Residues count along the entry.
UniProt Q01371: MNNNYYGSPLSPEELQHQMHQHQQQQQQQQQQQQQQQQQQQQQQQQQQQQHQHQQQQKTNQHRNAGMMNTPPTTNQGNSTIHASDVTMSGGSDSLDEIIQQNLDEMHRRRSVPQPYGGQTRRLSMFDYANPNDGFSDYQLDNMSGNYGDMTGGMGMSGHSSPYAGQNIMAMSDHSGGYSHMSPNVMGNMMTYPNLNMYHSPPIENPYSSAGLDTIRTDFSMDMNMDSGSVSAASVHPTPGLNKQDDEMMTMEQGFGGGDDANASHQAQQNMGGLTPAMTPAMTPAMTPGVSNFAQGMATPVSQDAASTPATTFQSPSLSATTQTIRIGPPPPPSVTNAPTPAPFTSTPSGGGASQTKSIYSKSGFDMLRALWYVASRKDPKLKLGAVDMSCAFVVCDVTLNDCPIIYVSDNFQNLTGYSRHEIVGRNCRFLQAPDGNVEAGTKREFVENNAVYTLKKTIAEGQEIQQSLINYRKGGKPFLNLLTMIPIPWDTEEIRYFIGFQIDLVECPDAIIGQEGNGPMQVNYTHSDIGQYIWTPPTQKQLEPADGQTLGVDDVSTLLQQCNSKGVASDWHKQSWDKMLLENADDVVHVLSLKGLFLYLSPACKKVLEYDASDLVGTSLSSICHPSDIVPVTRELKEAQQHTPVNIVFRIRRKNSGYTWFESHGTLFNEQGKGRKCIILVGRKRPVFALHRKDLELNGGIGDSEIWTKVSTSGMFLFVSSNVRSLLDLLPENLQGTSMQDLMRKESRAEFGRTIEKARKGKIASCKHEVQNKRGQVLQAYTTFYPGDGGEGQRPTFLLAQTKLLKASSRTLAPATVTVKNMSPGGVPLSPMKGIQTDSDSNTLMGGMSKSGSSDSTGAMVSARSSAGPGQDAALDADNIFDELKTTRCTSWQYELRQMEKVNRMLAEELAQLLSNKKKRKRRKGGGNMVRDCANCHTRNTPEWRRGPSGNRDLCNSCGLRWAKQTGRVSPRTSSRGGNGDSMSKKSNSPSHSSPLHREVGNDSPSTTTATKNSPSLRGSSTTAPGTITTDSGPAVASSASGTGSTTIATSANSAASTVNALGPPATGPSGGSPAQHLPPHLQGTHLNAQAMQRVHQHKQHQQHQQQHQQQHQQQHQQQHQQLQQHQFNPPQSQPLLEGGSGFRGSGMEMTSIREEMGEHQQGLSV
GST-WC-1 aa 1-300-6xHis: residues 1-300 of Q01371
GST-WC-1 aa 100-300-6xHis: residues 100-300 of Q01371

These are yes or no findings as the source states them, for the method shown. In cells and extracts the contact can be indirect. Some results given as binding are weak or reduced against the parent protein; the word gives no strength.

The target in experiment [1] is T1, White Collar-2 (Neurospora crassa (endogenous in Neurospora lysate)) (UniProt P78714).
T1 sequence: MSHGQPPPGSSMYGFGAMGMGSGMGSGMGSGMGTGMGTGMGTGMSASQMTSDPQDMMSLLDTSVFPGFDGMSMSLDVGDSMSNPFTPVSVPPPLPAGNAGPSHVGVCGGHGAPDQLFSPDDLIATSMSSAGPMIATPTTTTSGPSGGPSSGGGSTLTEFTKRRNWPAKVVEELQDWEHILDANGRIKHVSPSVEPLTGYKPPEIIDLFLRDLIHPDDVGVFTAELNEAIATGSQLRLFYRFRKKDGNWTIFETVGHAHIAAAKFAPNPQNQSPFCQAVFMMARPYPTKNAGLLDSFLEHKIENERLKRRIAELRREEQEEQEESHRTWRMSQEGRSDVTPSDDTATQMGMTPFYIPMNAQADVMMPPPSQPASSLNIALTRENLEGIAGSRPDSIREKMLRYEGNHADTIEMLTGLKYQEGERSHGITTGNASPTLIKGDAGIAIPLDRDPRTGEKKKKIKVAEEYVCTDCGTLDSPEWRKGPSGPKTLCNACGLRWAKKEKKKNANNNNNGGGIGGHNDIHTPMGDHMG
Briefly: co-IP; immunoprecipitation with WC-2 antibody from lysate of a Neurospora strain with SWI1 C-terminally tagged with V5; Western blot; with and without WC-1. (In general: In western blotting, separated proteins are transferred to a membrane and probed.)

Experiment [2] addresses GST-WC-1 aa 1-300-6xHis (Neurospora) (UniProt Q01371). Briefly: pull-down; purified GST, GST-aa1-300 or GST-aa100-300 on glutathione beads incubated with 2 milligrams of cleared Neurospora lysate (SWI1 C-tagged with V5), rotated at least 2 hours, washed three times; Western blot; only the target purified.
Experiment [3] has as its target GST-WC-1 aa 100-300-6xHis (Neurospora) (UniProt Q01371). Described as above.

On to “White Collar-1 (from UniProt Q01371 1-1167)”, for which the binding entry in experiment [1] is recorded as “binds”.

With actin (from UniProt P78711 1-375), the binding result in experiment [2] and in experiment [3] was “no binding” throughout.
